Measurements from the supplement of paper PMC9233669.
Variants at the background level are over-represented here.

Experiments:
biotinyl-Phe-oxazolone = assay: self-aminoacylation, catalytic enhancement (BFO) (fold over background); higher = more active; k-Seq, kA / k0A0; sequences stand for … in GGGAAUGGAUCCACAUCUACGAAUUC…UUCACUGCAGACUUGACGAAGCUG
In short: (§1)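 Each biotinyl-aminoacyl-oxazolone, at 2–1250 μM, was incubated with mutagenized RNA pools (0.43 μM) carrying a 21-nt variable region. The 50 μL reactions contained HEPES/NaCl/KCl/MgCl2/CaCl2 buffer with 5% acetonitrile at pH 6.9–7.0 and ran for 90 minutes at room temperature. After streptavidin capture, RNA was measured by qPCR in triplicate and by Illumina sequencing, and catalytic enhancement was calculated as median kA over the uncatalyzed rate from a pseudo-first-order fit of per-sequence fraction reacted.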

biotinyl-Met-oxazolone = assay: self-aminoacylation, catalytic enhancement (BMO) (fold over background); higher = more active; k-Seq, kA / k0A0; sequences stand for … in GGGAAUGGAUCCACAUCUACGAAUUC…UUCACUGCAGACUUGACGAAGCUG
In short: as §1

biotinyl-Leu-oxazolone = assay: self-aminoacylation, catalytic enhancement (BLO) (fold over background); higher = more active; k-Seq, kA / k0A0; sequences stand for … in GGGAAUGGAUCCACAUCUACGAAUUC…UUCACUGCAGACUUGACGAAGCUG
In short: as §1

biotinyl-Ile-oxazolone = assay: self-aminoacylation, catalytic enhancement (BIO) (fold over background); higher = more active; k-Seq, kA / k0A0; sequences stand for … in GGGAAUGGAUCCACAUCUACGAAUUC…UUCACUGCAGACUUGACGAAGCUG
In short: as §1

biotinyl-Val-oxazolone = assay: self-aminoacylation, catalytic enhancement (BVO) (fold over background); higher = more active; k-Seq, kA / k0A0; sequences stand for … in GGGAAUGGAUCCACAUCUACGAAUUC…UUCACUGCAGACUUGACGAAGCUG
In short: as §1

biotinyl-Trp-oxazolone = assay: self-aminoacylation, catalytic enhancement (BWO) (fold over background); higher = more active; k-Seq, kA / k0A0; sequences stand for … in GGGAAUGGAUCCACAUCUACGAAUUC…UUCACUGCAGACUUGACGAAGCUG
In short: as §1

| Sequence | self-aminoacylation (biotinyl-Phe-oxazolone) | self-aminoacylation (biotinyl-Met-oxazolone) | self-aminoacylation (biotinyl-Leu-oxazolone) | self-aminoacylation (biotinyl-Ile-oxazolone) | self-aminoacylation (biotinyl-Val-oxazolone) | self-aminoacylation (biotinyl-Trp-oxazolone) |
| --- | --- | --- | --- | --- | --- | --- |
| AUUCAGCUAGGUCGUCGGGUG [Fam2.2 aminoacylation ribozyme variant] | 13.1 | 3.24 | 3.24 | 2.53 | 2.62 | 3.08 |
| AUUCAGGUAGGUCAUCGGGUG [Fam2.2 aminoacylation ribozyme variant] | 30.7 | 4.59 | 5.83 | 3.68 | 4.23 | 5.12 |
| AUUCAUCUAUGUCAUCGGGUG [Fam2.2 aminoacylation ribozyme variant] | 50.7 | 6.63 | 8.74 | 4.09 | 3.8 | 6.27 |
| AUUCCCCUGGUAAUCGAGUGA [Fam2.1 aminoacylation ribozyme variant] | 37.7 | 6.36 | 5.9 | 3.09 | 3.28 | 7.35 |
| AUUCUCCUAGGUCAUCUGGUG [Fam2.2 aminoacylation ribozyme variant] | 30 | 4.5 | 5.43 | 3.03 | 2.91 | 4.16 |
| AUUGCCCUGGACAUCGAGUGA [Fam2.1 aminoacylation ribozyme variant] | 24.8 | 5.71 | 5.58 | 2.41 | 3.11 | 5.92 |
| AUUGCCCUGGUCGUCGAGUGA [Fam2.1 aminoacylation ribozyme variant] | 8.62 | 1.57 | 1.34 | 1.13 | 1.35 | 1.41 |
| AUUUACCUAGGUCAUCGGUUG [Fam2.2 aminoacylation ribozyme variant] | 0.656 | 1.08 | 0.797 | 0.824 | 0.939 | 1.07 |
| AUUUACGUAGGUCAUCGGGUG [Fam2.2 aminoacylation ribozyme variant] | 25.2 | 3.99 | 3.68 | 2.88 | 3.38 | 3.64 |
| AUUUCCCUGGUAAUCGAGUGA [Fam2.1 aminoacylation ribozyme variant] | 57.7 | 7.89 | 8.19 | 3.84 | 4.01 | 9.31 |
| AUUUCCCUGGUCAUCGAGUAA [Fam2.1 aminoacylation ribozyme variant] | 3.9 | 2.39 | 2.52 | 1.56 | 1.83 | 2.37 |
| AUUUCCCUGGUCAUCGAGUCA [Fam2.1 aminoacylation ribozyme variant] | 0.887 | 0.846 | 0.944 | 1.01 | 1.11 | 0.598 |
| AUUUCCCUGGUGAUCGAGUGA [Fam2.1 aminoacylation ribozyme variant] | 44.4 | 5.5 | 5.66 | 2.77 | 3.15 | 6.58 |
| AUUUUUGCUAAUAGUCGCAAG [Fam3.1 aminoacylation ribozyme variant] | 1.71 | 1.07 | 0.994 | 1.37 | 1.02 | 1.02 |
| CAACACUUCAAGCAAUAGGUC [Fam1B.1 aminoacylation ribozyme variant] | 1.06 | 0.616 | 0.512 | 0.707 | 0.72 | 0.591 |
| CAACACUUCAAGCAAUCGAUC [Fam1B.1 aminoacylation ribozyme variant] | 1.62 | 0.462 | 0.584 | 0.615 | 0.658 | 0.721 |
| CAACUUCAAACAAUCGGUCAG [Fam1A.1 aminoacylation ribozyme variant] | 19.5 | 1.14 | 1.2 | 1.32 | 1.22 | 11.9 |
| CAACUUCAAACGAUCGGUCUG [Fam1A.1 aminoacylation ribozyme variant] | 2.25 | 0.881 | 0.99 | 1.13 | 1.25 | 2.65 |
| CAACUUCCAACAAUCGGUCUG [Fam1A.1 aminoacylation ribozyme variant] | 1.69 | 1.15 | 0.985 | 1.13 | 0.929 | 1.14 |
| CCAAACAUCAAGCAAUCGGUC [Fam1B.1 aminoacylation ribozyme variant] | 1.01 | 0.831 | 0.793 | 0.904 | 0.878 | 0.972 |
| CCAAACUUAAAGCAAUCGGUC [Fam1B.1 aminoacylation ribozyme variant] | 0.732 | 0.795 | 0.877 | 1.03 | 1.04 | 0.71 |
| CCAAACUUCAAGCAAGCGGUC [Fam1B.1 aminoacylation ribozyme variant] | 0.852 | 0.885 | 0.868 | 1.03 | 1 | 0.81 |
| CCAAACUUCAAGCAAUCUGUC [Fam1B.1 aminoacylation ribozyme variant] | 0.7 | 0.377 | 0.284 | 0.468 | 0.528 | 0.307 |
| CCAAACUUCAAGCACUCGGUC [Fam1B.1 aminoacylation ribozyme variant] | 1.52 | 1.31 | 1.01 | 1.23 | 1.41 | 1.19 |
| CCAAACUUCAGGCAAUCGGUC [Fam1B.1 aminoacylation ribozyme variant] | 1.03 | 1.53 | 1.24 | 1.46 | 1.75 | 1.65 |
| CCAAACUUCCAGCAAUCGGUC [Fam1B.1 aminoacylation ribozyme variant] | 0.708 | 1.1 | 1.09 | 1.32 | 1.56 | 1.17 |

| Sequence | self-aminoacylation (biotinyl-Phe-oxazolone) | self-aminoacylation (biotinyl-Met-oxazolone) | self-aminoacylation (biotinyl-Leu-oxazolone) | self-aminoacylation (biotinyl-Ile-oxazolone) | self-aminoacylation (biotinyl-Val-oxazolone) | self-aminoacylation (biotinyl-Trp-oxazolone) |
| --- | --- | --- | --- | --- | --- | --- |
| CCAAGCUUCAAGCAAUCGGUC [Fam1B.1 aminoacylation ribozyme variant] | 86.5 | 1.51 | 2.5 | 1.35 | 1.3 | 44.9 |
| CCACAAUUCAAGCAAUCGGAC [Fam1B.1 aminoacylation ribozyme variant] | 0.942 | 0.783 | 0.884 | 1.15 | 0.798 | 0.711 |
| CCACAAUUCAAGGAAUCGGUC [Fam1B.1 aminoacylation ribozyme variant] | 1.17 | 1.27 | 1.05 | 1.01 | 1.16 | 1.14 |
| CCACACAUCAAGCAAUCGGUA [Fam1B.1 aminoacylation ribozyme variant] | 0.672 | 1.3 | 1.12 | 1.13 | 1.45 | 0.43 |
| CCACACAUCAAGCAAUUGGUC [Fam1B.1 aminoacylation ribozyme variant] | 0.913 | 0.667 | 0.873 | 0.921 | 0.829 | 0.782 |
| CCACACAUCACGCAAUCGGUC [Fam1B.1 aminoacylation ribozyme variant] | 0.984 | 0.877 | 1.01 | 1.01 | 1.27 | 0.873 |
| CCACACCUCAAGCAAUAGGUC [Fam1B.1 aminoacylation ribozyme variant] | 1.02 | 0.562 | 0.668 | 0.799 | 0.872 | 0.675 |
| CCACACCUCAGGCAAUCGGUC [Fam1B.1 aminoacylation ribozyme variant] | 1.13 | 1.08 | 1.65 | 1.74 | 1.96 | 1.39 |
| CCACACCUCAUGCAAUCGGUC [Fam1B.1 aminoacylation ribozyme variant] | 1.19 | 0.839 | 0.685 | 0.959 | 1.05 | 0.975 |
| CCACACCUCUAGCAAUCGGUC [Fam1B.1 aminoacylation ribozyme variant] | 0.749 | 0.766 | 0.947 | 1.14 | 1.05 | 0.532 |
| CCACACUACAAGCAAUCAGUC [Fam1B.1 aminoacylation ribozyme variant] | 1.07 | 0.394 | 0.617 | 0.687 | 0.623 | 0.422 |
| CCACACUACAAGCACUCGGUC [Fam1B.1 aminoacylation ribozyme variant] | 0.953 | 1.12 | 0.973 | 1.29 | 1.06 | 1.03 |
| CCACACUACAAGCCAUCGGUC [Fam1B.1 aminoacylation ribozyme variant] | 1 | 0.919 | 1.07 | 1.15 | 1.19 | 0.935 |
| CCACACUCCAAGCACUCGGUC [Fam1B.1 aminoacylation ribozyme variant] | 0.642 | 1.32 | 0.768 | 1.35 | 1.24 | 0.831 |
| CCACACUCCAAGCAGUCGGUC [Fam1B.1 aminoacylation ribozyme variant] | 0.733 | 1.04 | 1.11 | 1.32 | 1.49 | 1.04 |
| CCACACUGAAAGCAAUCGGUC [Fam1B.1 aminoacylation ribozyme variant] | 0.942 | 0.951 | 0.84 | 1.27 | 1.06 | 0.745 |
| CCACACUGCAAGCAAACGGUC [Fam1B.1 aminoacylation ribozyme variant] | 1.03 | 0.997 | 0.805 | 0.962 | 0.963 | 0.952 |
| CCACACUGCAAGCUAUCGGUC [Fam1B.1 aminoacylation ribozyme variant] | 1.1 | 0.809 | 1.34 | 1.37 | 1.75 | 1.06 |
| CCACACUGCUAGCAAUCGGUC [Fam1B.1 aminoacylation ribozyme variant] | 1.38 | 0.937 | 0.642 | 0.953 | 1.03 | 0.558 |
| CCACACUUAAAGCAAGCGGUC [Fam1B.1 aminoacylation ribozyme variant] | 0.584 | 0.862 | 0.811 | 1.08 | 0.918 | 0.598 |
| CCACACUUAAAGCAAUCAGUC [Fam1B.1 aminoacylation ribozyme variant] | 1.1 | 0.59 | 0.606 | 0.724 | 0.741 | 0.548 |
| CCACACUUAAAGCAAUCGAUC [Fam1B.1 aminoacylation ribozyme variant] | 0.984 | 0.475 | 0.542 | 0.769 | 0.829 | 0.572 |
| CCACACUUCAAACAAGCGGUC [Fam1B.1 aminoacylation ribozyme variant] | 0.971 | 0.68 | 0.728 | 0.922 | 0.746 | 0.603 |
| CCACACUUCAACCAAUCGAUC [Fam1B.1 aminoacylation ribozyme variant] | 1.83 | 0.384 | 0.445 | 0.579 | 0.602 | 0.73 |
| CCACACUUCAACCAGUCGGUC [Fam1B.1 aminoacylation ribozyme variant] | 0.67 | 1.04 | 1.21 | 1.01 | 1.1 | 1.16 |
